Experimental findings from PubChem BioAssay AID1508600 (Functional Genomics Laboratory (NCATS/FGL), 2020) are described below.

Among all 53,000 sequences or so, about 3,700 (7%) were called active.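 The calls were made as follows: active = gene knockdowns whose robust z-score for IL-1 alpha signal is at least 2 or at most -2, so actives lie on both sides; inactive = the rest.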 The list shows a part of the results.

This assay in a line: Components of the Cytosolic LPS Sensing Pathway: Gene Identification via Genome-wide siRNA Screen.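 Also: robust z of the log signal after scaling to non-targeting control siRNA wells of the plate.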 Conditions: RAW264.7 macrophages, IL-1a HTRF, actives lie on both sides, screened at 100 nM (by protocol), cells primed 5 h with Pam3CSK4 first. In short, it runs like this: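 Using IL-1a HTRF as read-out, the screen measured release from RAW264.7 cells after 48h siRNA knockdown (100 nM), 5 h Pam3CSK4 priming and 24 h cytosolic LipidA. Values were expressed relative to negative-control wells as robust z-scores.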
Background: In TR-FRET formats the signal depends on donor and acceptor labels being close together.
Turning to CCCUCCUCCAGCAUAUGAATT against Fbxl18, the z-score is inactive: 0.0672.
With GGGAGUAUGUUUGUGGCUCTT against S1pr1 the figure was inactive: -0.144.
With GCCAUCUGCUUUAACCUCUTT against Aebp2, the z-score is inactive: 0.238.
GCAGCAAACUUUUUAUCCATT against Armc1: the z-score was inactive: -1.1.
Regarding GCUAUGAAGAUUCGAUUAATT against Rpa1, the z-score was inactive: 0.726.
With GGUGCAUUUAUGUAUUUCCTT against Olfr916 the figure was inactive: -1.76; with GGAGAAGGAACAAGAUAAATT against Srek1, inactive: -1.67.
Consider GCUACAGGGAAAAAGUUCCTT against Olfr994, for which the z-score is inactive: 0.383.
As to GGGUCUCAACAAAAUCAGUTT against Gli3, the z-score is inactive: 1.58.
For the sequence GGCAACUUCAUUGUGAAGGTT against Man2b1, the z-score is inactive: -0.231.
To CCUCUCCAUCUUUGACAUGTT against Olfr963 belongs inactive: 0.257; to “CCCUAUUCUUUUUGUCAUGTT against Olfr105-ps”, inactive: -1.9.
To GGUGUUCCAGUUCUCAAAGTT against Slc44a4 belongs inactive: -0.213.
For the sequence GGCAUGGAAGGGUUGGAUATT against Polk, the z-score is inactive: -0.0837.
Consider GCAGCUCCCAAUCUCACUUTT against Ankrd34a, for which the z-score is inactive: 0.171.
With GCCUUAUUACUGACCUUUUTT against Smarcd2 the figure was inactive: 1.77; with GGAUGCAUGAGAAAUGUUATT against Tbc1d14, inactive: -0.0572.
With GGCUACCACACAUACCAAATT against Stra6 the figure was inactive: -0.736; with GGCCAACUAGGGUGUUUGUTT against Tsx, inactive: 0.182; with GGUUUUAUGAGAAAGCAGATT against Ogfod1, inactive: 0.0298.
As for GGAAAAACAAUUGAGCAUGTT against Fyttd1, the z-score is inactive: 1.33.
As for GGCGAUCGAGCCCUACAAATT against Bnip2, the z-score was inactive: 1.26.
As for GCAAGUAGAUUGUCUCGAGTT against Scd1, the z-score is inactive: -0.12.
To GUUCUCACUCAAGGUCACCTT against Casz1 belongs inactive: 0.395.
As for GGUAAAUGCUGACUGUGAUTT against Cilp, the z-score is inactive: -1.75.
To GGGUCAACCAGCAAAACCUTT against Fam216b belongs inactive: -1.66.
With CGAAGGUCAAACAGUUUGATT against Stxbp6, the z-score is inactive: -0.558.
As to GGGAUCUCUGAGCUCUGCUTT against Rilp, the z-score is inactive: -1.61.
As to GGCUCUUACACUAUAUUUUTT against Tle1, the z-score was inactive: -0.0524.
To GGAAAAGGACCUUAAAUUUTT against Rnpc3 belongs inactive: -0.6; to “GGGACCUAGCAAUUGCUUATT against A430057M04Rik”, inactive: 0.613.
With GGUGGAUGAUGUUUAUCUCTT against Grsf1 the figure was inactive: 1.04; with GGCGCAAAAGGAAAAAAAGTT against Dnajc18, inactive: -0.17; with GGAUGGCUAUCUUGUAAUUTT against Sugct, inactive: 1.23.
Turning to GGCAUAUACAUCAACAUGATT against Catsperg2, the z-score is inactive: -0.439.
As to GCAGCAUGCUGAAGAAAGATT against Jund, the z-score is inactive: -0.929.
On to GGAGACUCGGCUUCUUCAATT against Togaram1, for which the z-score is inactive: 1.76.
With GCAUUCGAAAUGAAGAUAATT against Dnajb1 the figure was inactive: -1.75; with GUUUGUGCUGUUAGGUUUUTT against Olfr1347, active: 2.46.
To GGCUGGUAUUACAUCUAUCTT against Myo19 belongs inactive: 1.5; to GGGAGCUAUGAACUCCUUUTT against Krtap5-5, inactive: 0.0898.
With GCCGUGCAAAGUUUAUUCATT against Nme8 the figure was inactive: 1.06; with GGAUAUGAAUGAGACCUUCTT against Cables2, inactive: -0.565; with GGGCAUCAAAUUAAGAUCATT against Mylk3, inactive: 1.64.
“GCCAAGCUUGCUGGAUCUUTT against 2310033P09Rik”: the z-score was inactive: 0.96.
As for GGAAUCAACGGAUGAAAUUTT against Rab3gap1, the z-score was inactive: 0.716.
With GGUCAUCUCCAAACCCUCCTT against Rbpj the figure was inactive: 1.51.
Regarding CCUGCUACCGUACAGUCUCTT against Esm1, the z-score is inactive: -0.319.
With GGCUCCGUUAUAGAUGACATT against Aip the figure was inactive: -0.665.
With GGAAAUCUCGUGAUUUUCATT against Tead1 the figure was inactive: 0.502.
Take GGAGAGCAGCAUUGAUAACTT against S100a5: the z-score is inactive: 1.42.
Take GGAUUCCCAACACUUGAAUTT against Prcp: the z-score is inactive: 0.423.
Consider GGUGAAUCGGGCCAAUAAGTT against Slc11a2, for which the z-score was inactive: 0.49.
With CCUACGGCAAACAGAGACUTT against Klk6 the figure was active: -2.29; with UGCAGUGCACUGUACUACATT against Ssxb2, inactive: -0.0838; with CCAAGUUGGCAUACUAUUCTT against Pank4, inactive: -0.126.
In the case of GGGAGACUUCGAAUAUUUATT against Uroc1, the z-score is inactive: -0.183.
For the sequence GGCUUUGUGCUAAAAAAAATT against Pgm2l1, the z-score was inactive: -0.269.
For the sequence GCACUUGCUUCAAGUAAUATT against Ankrd52, the z-score was inactive: -0.0516.
To GGAGAAGAUGCUGUCUUGCTT against Kif21b belongs inactive: 0.182.
To GGUCGGAAGAAUCUAAAGGTT against Dmp1 belongs inactive: 0.374.
With GGCUAAUAAGAAGUGAAGUTT against Kifc5b the figure was inactive: -0.351; with GCAUAAGCGAAGAAGAAGUTT against Clk2, inactive: 0.0795; with GGCGAUCAGGCAUCAUCCUTT against Aox1, inactive: -0.153.
Consider “GGAAAGCUUACAGUUGAAATT against 4933427D06Rik”, for which the z-score was inactive: 0.992.
For the sequence GGGAAGGGUCCAAAAAUCUTT against Mmp17, the z-score was inactive: 0.349.
To CCUCUCCUGCUCUGACAUATT against Olfr933 belongs inactive: 0.541.
GCCGAAAGCUAAAUCAAUCTT against Tnfrsf13c: the z-score was inactive: -0.559.
GGAGAAGAGCCUUCUCAAGTT against Srsf4: the z-score is active: 2.05.
As to AGGAUACGAUUGAACGGCUTT against Rac3, the z-score was inactive: 0.289.
With UGGUACCACCAUUUUUACCTT against Olfr452 the figure was inactive: -1.2; with GGGCAUUGGUGACUUUGAATT against Hrob, active: -2.11; with GCAACACGUACGAGCUCAATT against Pou2af1, inactive: -0.926.
With GGAGCUAUCAGAGAAGAGGTT against Slc13a4, the z-score was inactive: -1.07.
With GGCAAUUUCCUUAUUAGAUTT against Nop58 the figure was inactive: 0.967; with GGCAUGGAAAAUUCUAGGGTT against Dnajc24, inactive: -0.987.
To GGACAAUGUCCUCCAAUCUTT against Arhgef28 belongs inactive: -1.95.
Consider GGACUAUCGGGAGAAAGUGTT against Ywhaq, for which the z-score was inactive: -0.365.
Take CCUUGAUGCUCGUAGGAAGTT against Efr3a: the z-score is inactive: -1.11.
With GUGAGACCUACCAGAUGAATT against Vmn1r28 the figure was inactive: 1.61.
Take GGAGUAUUACGUCUGAUAUTT against Nrxn1: the z-score is active: 2.39.
On to GCUCCGAUUAACAAAGCCGTT against Ints4, for which the z-score is inactive: 0.97.
With GGACGGUCUUGCCUUCUUCTT against Fam222a the figure was inactive: 0.901.
To CCUACUCCAAUGCUGUAGCTT against Slc27a1 belongs inactive: -0.304.
In the case of GGAUUUUCUCUAUGCAGGCTT against Dcaf15, the z-score was inactive: 0.0862.
To UUGGGAAAUCGAUUUUACCTT against Gm3579 belongs inactive: 0.132; to GGAAAGAUGAACAUGAAAGTT against Terf2, inactive: 0.0214.
Turning to CCGCACCAUUCAGCUUUUUTT against Mmgt2, the z-score is inactive: 0.446.
For GGCAGAGCAGUUUUCCUCATT against Kcna4, the z-score is inactive: -1.2.
In the case of GGUGUGUGCUUCAUCUAAATT against Smpdl3a, the z-score was inactive: -0.142.
To GGUCCAUUGAGCACUUUGCTT against Frmpd3 belongs inactive: -1.73; to GCUGAACGAGCAAUUGAGATT against Pabpc6, inactive: 0.524; to GCAUAGUUUUUGACAAAACTT against Prmt6, inactive: 0.979.
Regarding GGAAUAACAGAUCAUACAGTT against Olfr194, the z-score is inactive: -0.678.
With CCCUAUUAGUGGAAGCAUGTT against Zfp738 the figure was inactive: -1.94; with “GGACUUGGAAGUAAUUUUCTT against C230071H18Rik”, active: 2.06.
To GCGCAUCAAAAUUGAGAGUTT against Helz belongs inactive: 0.559; to GCACCAUUUUAAGAUCUGCTT against Prr13, inactive: 0.238; to CCACUUUCACAUGAAGUUATT against Eif2s3x, inactive: -0.7.
With GGAAUCUGCUUUCAGCUUGTT against Olfr1044, the z-score is inactive: -0.152.
As to GGAAAGUCUAAAGGAAAUUTT against Crnkl1, the z-score was inactive: -1.07.
Consider “AGCUCAUUUACAAGUGAGGTT against 1700073E17Rik”, for which the z-score was inactive: 0.117.
To GGUUGUCAGUAAGAACCUGTT against Polr3a belongs inactive: 0.275.
Consider GGAGCUUCUAGAGAAGAUCTT against Tsen34, for which the z-score was inactive: -0.305.
With GGAGCAUGGAACAAUAAUATT against Fli1 the figure was inactive: 1.65.
To GGUCAAAACUGCUCUGCACTT against Lepr belongs inactive: -1.73.
